# Experimental data: patent US6579967B1 (The Salk Institute for Biological Studies, priority 1999, dated 2003)
# Test: Boc solid-phase peptide synthesis; chloromethylated resin
# Details: whole synthesis, capillary zone electrophoresis
substance,measurement,value
"(cyclo)H-Cys-Phe-Tyr-D-Agl(Me,2Np)-Lys-Thr-Phe-Cys-OH",final purity (method not given),greater than 95% pure
